# ± gives the standard deviation of the averaged measurements. The list shows a part of the results. These are raw signals, not scaled to a control.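 A neuron, microglia and astrocyte co-culture models inflammatory neurodegeneration: bacterial LPS drives microglia-dependent neuron loss. Each compound was tested against DMSO vehicle wells on the same plates; BAY61-3606, a SYK inhibitor, was the reference neuroprotective control.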
# Assays:
# Conditions in all cases: 1 µM, treatment time 3 days
# [1] = test system: rat primary cerebellar neuron-glia coculture; test: microglia count (IB4+) per image field (cells per field); higher = more microglia
# [2] = test system: rat primary cerebellar neuron-glia coculture; test: necrotic cell count (DRAQ7+) per image field (cells per field); higher = more necrosis
# [3] = test system: rat primary cerebellar neuron-glia coculture; test: live neuron count (NeuO+) per image field (cells per field); higher = more surviving neurons
# [4] = test system: rat primary cerebellar neuron-glia coculture; test: median microglial FormFactor (circularity) per image (dimensionless (0-1)); higher = rounder, more ameboid microglia
SMILES,microglia count ([1]; LPS 0 ng/mL),microglia count ([1]; LPS 100 ng/mL),necrotic cell count ([2]; LPS 0 ng/mL),necrotic cell count ([2]; LPS 100 ng/mL),live neuron count ([3]; LPS 0 ng/mL),live neuron count ([3]; LPS 100 ng/mL),median microglial FormFactor ([4]; LPS 0 ng/mL),median microglial FormFactor ([4]; LPS 100 ng/mL)
COc1cc(C(=O)NS(=O)(=O)c2ccccc2C)ccc1Cc1cn(C)c2ccc(NC(=O)OC3CCCC3)cc12,40.2 ± 15,376 ± 94,275 ± 92,208 ± 59,3020 ± 460,3180 ± 420,0.623 ± 0.096,0.633 ± 0.034
Cc1cncn1CCCn1c(=S)[nH]c2ccccc2c1=O,152 ± 40,407 ± 55,94.4 ± 41,1130 ± 300,–,–,0.545 ± 0.071,0.694 ± 0.05
CCCC[n+]1c(/C=C/c2ccc(N(C)C)cc2)sc2ccccc21,365 ± 72,311 ± 64,304 ± 170,1630 ± 320,–,–,0.465 ± 0.061,0.624 ± 0.034
CCCCc1oc2ccccc2c1C(=O)c1cc(I)c(OCCN(CC)CC)c(I)c1,216 ± 65,422 ± 86,78.5 ± 24,951 ± 260,–,–,0.504 ± 0.095,0.66 ± 0.063
C/C(=N\NC(=O)c1cccc(S(=O)(=O)N2CCOCC2)c1)c1ccccc1O,183 ± 59,427 ± 94,82.9 ± 40,921 ± 280,–,–,0.545 ± 0.13,0.66 ± 0.054
COc1cc(OC2CCN(C)CC2)ccc1Nc1ncc2c(n1)n(C1CCCC1)c(=O)n2C,121 ± 14,407 ± 36,83.4 ± 33,1050 ± 270,–,–,0.652 ± 0.13,0.686 ± 0.023
COC(=O)Nc1ccc2[nH]cc(CCNC(C)=O)c2c1,158 ± 27,449 ± 130,85.5 ± 33,1010 ± 460,–,–,0.534 ± 0.087,0.686 ± 0.11
CC1(C)Cc2c(c(N3CCOCC3)nc3sc4c(NCCN5CCOCC5)ncnc4c23)CO1,174 ± 62,344 ± 36,85.4 ± 36,1110 ± 230,–,–,0.517 ± 0.057,0.797 ± 0.041
Clc1ccc(-c2nc3sccn3c2/C=N/OCc2ccc(Cl)c(Cl)c2)cc1,150 ± 43,440 ± 78,92.1 ± 46,884 ± 360,–,–,0.549 ± 0.1,0.645 ± 0.075
CC[C@@H]1[C@@H](C)[C@H](Nc2ccccc2)c2ccccc2N1C(=O)c1ccc(Br)cc1,173 ± 36,457 ± 92,75.1 ± 28,870 ± 310,–,–,0.522 ± 0.081,0.646 ± 0.068
NC[C@H](O)c1ccc(O)c(O)c1,118 ± 31,405 ± 37,127 ± 30,126 ± 51,–,–,0.609 ± 0.065,0.635 ± 0.035
COc1cc2nc(N3CCN(C(=O)C4COc5ccccc5O4)CC3)nc(N)c2cc1OC (stereo unspecified),172 ± 69,666 ± 90,161 ± 28,131 ± 45,–,–,0.661 ± 0.091,0.478 ± 0.051
NS(=O)(=O)c1cc(C(=O)NCCOc2ccccc2)c(Cl)cc1Cl,328 ± 520,418 ± 72,81.7 ± 32,1020 ± 370,–,–,0.534 ± 0.066,0.666 ± 0.078
C#C[C@]1(O)CC[C@H]2[C@@H]3CCc4cc(O)ccc4[C@H]3CC[C@@]21C,173 ± 45,416 ± 68,78.2 ± 35,1110 ± 400,–,–,0.546 ± 0.052,0.678 ± 0.057
N#C[C@@H]1C[C@@H]2C[C@@H]2N1C(=O)[C@@H](N)C12CC3CC(CC(O)(C3)C1)C2,167 ± 48,549 ± 120,106 ± 29,493 ± 260,–,–,0.546 ± 0.091,0.562 ± 0.11
CN(C)CCNC(=O)c1cccn2c(=O)c3cc4ccccc4cc3nc12,169 ± 30,429 ± 89,86.9 ± 49,1060 ± 350,–,–,0.512 ± 0.045,0.701 ± 0.04
COc1ccc(N2CCOCC2)c2sc(NC(=O)N3CCC(C)(O)CC3)nc12,183 ± 99,440 ± 83,84.4 ± 29,889 ± 410,–,–,0.513 ± 0.084,0.636 ± 0.08
COC(=O)C1=C(C)NC(C)=C(C(=O)OC)C1c1ccccc1[N+](=O)[O-],162 ± 46,431 ± 70,74.6 ± 16,1030 ± 290,–,–,0.551 ± 0.081,0.693 ± 0.052
CCOc1ccc2oc(C(=O)NC(CCSC)c3nc4ccccc4[nH]3)c(C)c2c1 (stereo unspecified),161 ± 33,434 ± 96,79.7 ± 32,944 ± 420,–,–,0.556 ± 0.097,0.664 ± 0.069
O=C(CN1C(=O)C2(CCCC2)NC[C@H]1c1cc(F)cc(F)c1)Nc1ccc2c(c1)C[C@@]1(C2)C(=O)Nc2ncccc21,327 ± 550,456 ± 82,73 ± 32,976 ± 370,–,–,0.545 ± 0.099,0.688 ± 0.053
Cc1ccc(NC(=O)/C=C/c2ccccc2)cc1,156 ± 34,452 ± 87,81 ± 38,985 ± 280,–,–,0.581 ± 0.085,0.637 ± 0.072

SMILES,microglia count ([1]; LPS 0 ng/mL),microglia count ([1]; LPS 100 ng/mL),necrotic cell count ([2]; LPS 0 ng/mL),necrotic cell count ([2]; LPS 100 ng/mL),live neuron count ([3]; LPS 0 ng/mL),live neuron count ([3]; LPS 100 ng/mL),median microglial FormFactor ([4]; LPS 0 ng/mL),median microglial FormFactor ([4]; LPS 100 ng/mL)
CN(C)c1ccc(/C=C2\C(=O)Nc3ccccc32)cc1,167 ± 49,417 ± 76,79.8 ± 36,1080 ± 330,–,–,0.56 ± 0.067,0.66 ± 0.055
O=C(Nc1cccc2c(=O)cc(-c3nnn[nH]3)oc12)c1ccc(OCCCCc2ccccc2)cc1,164 ± 43,424 ± 98,90.7 ± 31,970 ± 330,–,–,0.508 ± 0.055,0.703 ± 0.073
CC(C)C[C@H](NC(=O)[C@@H](O)[C@H](N)Cc1ccccc1)C(=O)O,155 ± 33,550 ± 320,85.6 ± 28,831 ± 420,–,–,0.541 ± 0.085,0.692 ± 0.079
CC(C)(C)c1ccc(S(=O)(=O)Nc2ccc(Cl)cc2C(=O)c2cc[n+]([O-])cc2)cc1,166 ± 51,440 ± 64,85.2 ± 29,876 ± 180,–,–,0.518 ± 0.11,0.673 ± 0.035
C[C@]12CC[C@@H]3c4ccc(O)cc4C[C@@H](CCCCCCCCC[S+]([O-])CCCC(F)(F)C(F)(F)F)[C@H]3[C@@H]1CC[C@@H]2O (stereo partly specified),123 ± 26,645 ± 61,206 ± 45,121 ± 25,–,–,0.736 ± 0.088,0.479 ± 0.074
COc1ccc(-n2nc(C(N)=O)c3c2C(=O)N(c2ccc(N4CCCCC4=O)cc2)CC3)cc1,158 ± 27,443 ± 78,79 ± 25,1020 ± 350,–,–,0.554 ± 0.081,0.653 ± 0.07
CCN(CC)CCOC(=O)C1(c2ccccc2)CCCC1,175 ± 51,412 ± 70,75.7 ± 24,875 ± 170,–,–,0.516 ± 0.072,0.679 ± 0.056
N#Cc1cn(-c2c[nH]n(-c3cc(N4CC(F)(F)C4)ncn3)c2=O)cn1,156 ± 40,449 ± 100,97.7 ± 40,761 ± 260,–,–,0.506 ± 0.078,0.66 ± 0.097
Cc1ccsc1C(=CCCN1CCC[C@@H](C(=O)O)C1)c1sccc1C,159 ± 40,444 ± 100,88.8 ± 30,720 ± 270,–,–,0.571 ± 0.09,0.616 ± 0.094
O=C(COc1ccc2ccccc2c1)N1CCN(C(=O)Cc2ccccc2)CC1,–,–,92.5 ± 46,827 ± 400,2650 ± 500,552 ± 690,–,–
CCn1c2ccccc2c2cc(NC(=O)N3CCOCC3)ccc21,207 ± 38,389 ± 99,64.3 ± 53,763 ± 440,–,–,0.523 ± 0.056,0.739 ± 0.071
CC(C)(c1ccc(O)cc1)c1ccc(O)cc1,189 ± 63,434 ± 91,79.5 ± 24,1010 ± 420,–,–,0.533 ± 0.093,0.631 ± 0.044
COc1cc2ncnc(Nc3cccc(Cl)c3F)c2cc1OC(=O)N1CCN(C)C[C@H]1C,178 ± 35,444 ± 68,79.6 ± 32,924 ± 310,–,–,0.533 ± 0.058,0.643 ± 0.11
O=C(Nc1ccc2c(c1)N(S(=O)(=O)c1ccc(F)cc1)CCC2)c1c(F)cccc1Cl,192 ± 93,490 ± 180,82.1 ± 24,838 ± 410,–,–,0.535 ± 0.1,0.643 ± 0.1
Cc1noc(C)c1CC(=O)NCc1ccccc1Cl,167 ± 62,410 ± 100,83.2 ± 32,1020 ± 400,–,–,0.58 ± 0.1,0.672 ± 0.06
Cc1nc(-c2ccccc2)sc1C(=O)Nc1ccc(S(N)(=O)=O)cc1,168 ± 34,392 ± 63,86.7 ± 18,1070 ± 400,–,–,0.56 ± 0.051,0.672 ± 0.051
O=c1[nH]c(=O)n([C@H]2C[C@H](O)[C@@H](CO)O2)cc1F,169 ± 29,458 ± 80,108 ± 50,702 ± 200,–,–,0.542 ± 0.076,0.625 ± 0.084
Cc1cc(NC(=O)NCCN2CCC(O)(Cc3ccccc3)CC2)c2ccccc2n1,156 ± 32,438 ± 100,83.9 ± 34,949 ± 260,–,–,0.557 ± 0.095,0.66 ± 0.061
CC1(C)Oc2ncnc(N)c2N=C1c1ccc(C23CCC(CC(=O)O)(CC2)CC3)cc1,182 ± 99,420 ± 100,74.9 ± 27,804 ± 320,–,–,0.52 ± 0.096,0.679 ± 0.077
CCOC(=O)c1c(NC(=O)Cc2ccccc2)sc2c1CCN(C(=O)OCC)C2,161 ± 34,404 ± 57,78.1 ± 28,1050 ± 280,–,–,0.529 ± 0.067,0.726 ± 0.081

# In a second layout: results already given
SMILES	microglia count ([1]; LPS 0 ng/mL)	microglia count ([1]; LPS 100 ng/mL)	necrotic cell count ([2]; LPS 0 ng/mL)	necrotic cell count ([2]; LPS 100 ng/mL)	live neuron count ([3]; LPS 0 ng/mL)	live neuron count ([3]; LPS 100 ng/mL)	median microglial FormFactor ([4]; LPS 0 ng/mL)	median microglial FormFactor ([4]; LPS 100 ng/mL)
Cc1noc(C)c1CC(=O)NCc1ccccc1Cl	167 ± 62	410 ± 100	83.2 ± 32	1020 ± 400	–	–	0.58 ± 0.1	0.672 ± 0.06
Cc1nc(-c2ccccc2)sc1C(=O)Nc1ccc(S(N)(=O)=O)cc1	168 ± 34	392 ± 63	86.7 ± 18	1070 ± 400	–	–	0.56 ± 0.051	0.672 ± 0.051
